Results are given in words; binding and its absence hold for the method and conditions named. Binding seen in cells or lysates may run through a third protein.
Target: FLAG-TNF-α (UniProt P06804)
Test: co-IP; SPOP+/+ and SPOP-/- MEFs stimulated by FLAG-TNF-α for the indicated periods of time; TNF-RSC immunoprecipitated using anti-Flag resin, immunoblot

The chains behind the UniProt entries cited, without tags or fusion partners. Where a name states a change or a piece, a line headed by the entry shows the natural chain unless it says otherwise.
UniProt P06804: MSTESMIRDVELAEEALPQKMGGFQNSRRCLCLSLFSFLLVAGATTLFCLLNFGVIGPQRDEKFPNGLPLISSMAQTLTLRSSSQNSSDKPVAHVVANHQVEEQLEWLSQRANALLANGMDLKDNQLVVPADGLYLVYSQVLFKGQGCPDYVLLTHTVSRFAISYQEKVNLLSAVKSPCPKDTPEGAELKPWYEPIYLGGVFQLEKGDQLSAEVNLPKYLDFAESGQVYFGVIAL
UniProt Q6ZWS8: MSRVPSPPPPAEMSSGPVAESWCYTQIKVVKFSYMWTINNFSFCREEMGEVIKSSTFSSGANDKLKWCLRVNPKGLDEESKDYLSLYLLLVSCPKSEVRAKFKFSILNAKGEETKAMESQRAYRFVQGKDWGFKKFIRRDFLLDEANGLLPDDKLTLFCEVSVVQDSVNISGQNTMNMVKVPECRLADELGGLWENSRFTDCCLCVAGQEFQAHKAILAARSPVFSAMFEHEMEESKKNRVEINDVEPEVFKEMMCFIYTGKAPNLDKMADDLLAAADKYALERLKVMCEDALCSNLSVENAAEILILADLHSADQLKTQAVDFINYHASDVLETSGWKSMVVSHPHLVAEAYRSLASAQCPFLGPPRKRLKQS

binding: no binding
Substance: speckle-type POZ protein (SPOP), endogenous in MEFs (from UniProt Q6ZWS8 1-374)

Source: paper PMC12581659
